Measurements reported in the supplement of paper PMC11546906.
Structures can show the parent of a compound that is named as a salt. The list shows a part of the results. Repeats in this data set agree poorly, so a single value says little.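 FDA-approved drugs were each paired with colistin at one-eighth its MIC and screened against a multidrug-resistant, mcr-1-positive clinical E. coli isolate, with OD600 read after 24 h. Drug-free bacteria served as growth control, plain broth as blank. Combinations were active if OD600 dropped below 0.2.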

Tested on: Escherichia coli 42 (mcr-1-positive clinical isolate)
Assay: OD600 after 24 h growth with compound plus colistin (absorbance units (OD600)); higher = more bacterial growth (less inhibition)
Settings: first compound 25 µM; colistin concentration 0.5 ug/mL; incubation time 24 h; 37 °C

Compound	OD600
CC(=O)[C@H]1CC[C@H]2[C@@H]3CCC4=CC(=O)CC[C@]4(C)[C@H]3CC[C@]12C [Progesterone] + CCC(C)CCCC(=O)N[C@@H](CCN)C(=O)N[C@H](C(=O)N[C@@H](CCN)C(=O)N[C@H]1CCNC(=O)[C@H]([C@@H](C)O)NC(=O)[C@H](CCN)NC(=O)[C@H](CCN)NC(=O)[C@H](CC(C)C)NC(=O)[C@@H](CC(C)C)NC(=O)[C@H](CCN)NC1=O)[C@@H](C)O [colistin]	inactive: 0.892
CNCCCN1c2ccccc2CCc2ccccc21 [Desipramine hydrochloride] + CCC(C)CCCC(=O)N[C@@H](CCN)C(=O)N[C@H](C(=O)N[C@@H](CCN)C(=O)N[C@H]1CCNC(=O)[C@H]([C@@H](C)O)NC(=O)[C@H](CCN)NC(=O)[C@H](CCN)NC(=O)[C@H](CC(C)C)NC(=O)[C@@H](CC(C)C)NC(=O)[C@H](CCN)NC1=O)[C@@H](C)O [colistin]	inactive: 0.908
COC(=O)[C@H](c1ccccc1Cl)N1CCc2sccc2C1 [Clopidogrel hydrogen sulfate] + CCC(C)CCCC(=O)N[C@@H](CCN)C(=O)N[C@H](C(=O)N[C@@H](CCN)C(=O)N[C@H]1CCNC(=O)[C@H]([C@@H](C)O)NC(=O)[C@H](CCN)NC(=O)[C@H](CCN)NC(=O)[C@H](CC(C)C)NC(=O)[C@@H](CC(C)C)NC(=O)[C@H](CCN)NC1=O)[C@@H](C)O [colistin]	inactive: 0.888
CO/N=C(\C(=O)N[C@@H]1C(=O)N2C(C(=O)OCOC(=O)C(C)(C)C)=C(/C=C\c3scnc3C)CS[C@H]12)c1csc(N)n1 [Cefditoren pivoxil] + CCC(C)CCCC(=O)N[C@@H](CCN)C(=O)N[C@H](C(=O)N[C@@H](CCN)C(=O)N[C@H]1CCNC(=O)[C@H]([C@@H](C)O)NC(=O)[C@H](CCN)NC(=O)[C@H](CCN)NC(=O)[C@H](CC(C)C)NC(=O)[C@@H](CC(C)C)NC(=O)[C@H](CCN)NC1=O)[C@@H](C)O [colistin]	inactive: 0.677
